Primary screen of a compound library

The chains behind the UniProt entries cited, without tags or fusion partners.
UniProt E9BF75, entry or part of it: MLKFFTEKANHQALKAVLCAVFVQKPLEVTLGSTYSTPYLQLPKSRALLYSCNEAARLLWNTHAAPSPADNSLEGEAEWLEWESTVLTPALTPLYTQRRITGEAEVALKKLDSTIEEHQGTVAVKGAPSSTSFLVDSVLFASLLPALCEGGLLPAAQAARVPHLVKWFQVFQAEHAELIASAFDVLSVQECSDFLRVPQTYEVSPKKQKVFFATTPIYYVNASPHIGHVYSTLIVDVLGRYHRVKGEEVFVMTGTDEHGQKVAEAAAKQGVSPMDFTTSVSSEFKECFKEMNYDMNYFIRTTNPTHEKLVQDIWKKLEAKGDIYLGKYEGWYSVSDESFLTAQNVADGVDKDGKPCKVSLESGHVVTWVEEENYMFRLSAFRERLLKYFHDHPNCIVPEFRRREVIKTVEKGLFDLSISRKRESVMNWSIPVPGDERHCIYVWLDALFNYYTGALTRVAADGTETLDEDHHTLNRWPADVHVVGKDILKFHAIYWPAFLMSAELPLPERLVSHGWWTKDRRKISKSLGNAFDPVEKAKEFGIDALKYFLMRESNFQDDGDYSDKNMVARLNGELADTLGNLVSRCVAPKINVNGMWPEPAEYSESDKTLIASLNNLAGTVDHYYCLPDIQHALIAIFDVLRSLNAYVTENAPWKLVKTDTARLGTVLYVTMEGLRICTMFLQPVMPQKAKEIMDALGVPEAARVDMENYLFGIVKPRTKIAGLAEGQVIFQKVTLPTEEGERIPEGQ

Results are percentages, as filed.
The controls that fix the scale are not given in the record; negative values are as filed.
The compounds are a random part of those screened.

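Primary screen of methionyl-tRNA synthetase; the read-out is not stated. Target: Methionyl-tRNA synthetase (putative), Leishmania donovani (UniProt E9BF75). The test concentration is not given. The values are filed as inhibition. Size under these conditions: about 68,000 compounds, about 24 of them at 50% or above in at least one test.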

| # | structure | inhibition |
|---|---|---|
| 1 | `COc1ccc(-c2n[nH]cc2CNC2CCN(C3CC3)CC2)cc1` | 19.89 |
| 2 | `COC(=O)C(NC(=O)c1ccc(N(C)C)nc1)c1ccccc1` (stereo unspecified) | 16.48 |
| 3 | `Cc1noc(C)c1C(=O)N1CCC2(CCc3ccccc3C(=O)N2)C1` (stereo unspecified) | 13.71 |
| 4 | `CN(CCNC(=O)N1CCN(Cc2ccon2)CC1)c1ccccc1` | 13.66 |
| 5 | `Cn1cc(NC(=O)N2CCCC2c2ccccn2)ccc1=O` (stereo unspecified) | 1.977 |
| 6 | `CCNC(=O)Cc1n[nH]c(-c2cncc(Br)c2)n1` | 21.09 |
| 7 | `CN(CC1CC1)C(=O)CN(Cc1cccc(O)c1)C1CCC(O)CC1` (stereo unspecified) | 12.27 |
| 8 | `Cc1cccc(C(C(=O)NCCc2nc(C)cc(=O)[nH]2)N(C)C)c1` (stereo unspecified) | 14.89 |
| 9 | `CCCc1nc(CNc2cc(CS(C)(=O)=O)ccc2Cl)no1` | 12.89 |
| 10 | `CC(C)N(Cc1nccn1C)C(=O)c1cnc(O)cn1` | 5.986 |
| 11 | `NC(=O)CN1CCCN(C(=O)Cc2ccc(F)cc2)CC1` | 19.94 |
| 12 | `Cc1noc(C(C)N2CCN(Cc3noc(C4CC4)n3)CC2)n1` (stereo unspecified) | 4.181 |
| 13 | `Cc1ccc(-c2nc(CC3CCN(C)CC3)no2)cc1N1CCNC1=O` | 8.123 |
| 14 | `COc1ccc(CNC(=O)c2ccc(Cl)cc2F)cc1C(=O)O` | -2.089 |
| 15 | `O=C(Nc1ccccc1F)C1CSCN1C(=O)CCc1ccco1` (stereo unspecified) | 9.524 |
| 16 | `CC(C)(C)n1ncc2c(=O)[nH]c(N3CCC4(CCCCC4)C3)nc21` | 12.9 |
| 17 | `CCNC(=O)CCC(=O)Nc1ccc2nn(C(C)C)cc2c1` | 17.13 |
| 18 | `COc1ccccc1[C@@H]1CN(Cc2c(C)noc2C)C[C@H]1C(=O)O` | 16.45 |
| 19 | `Cc1ccccc1C(CC(=O)NCc1nnc(N)s1)c1ccccc1` (stereo unspecified) | 14.44 |
| 20 | `CC(C)n1[nH]c(=O)c2c1NC(=O)CC2c1cccc(Br)c1` (stereo unspecified) | 13.76 |
| 21 | `COCCNC(=O)[C@H]1C[C@@H]2CCN(c3ncccn3)C[C@@H]2O1` | 12.69 |
| 22 | `O=C(NCCN1CCOCC1)NCc1ncc(-c2ccccc2)o1` | 10.73 |
| 23 | `NC(=O)C1CCN(C(=O)c2cc(S(=O)(=O)N3CCCC3)cs2)CC1` | 1.282 |
| 24 | `CCc1nnc2n1CCN(c1nc(C)cc(N(C)C)n1)C2` | 13.07 |
| 25 | `O=C(c1cccs1)N1CCOCC2(C1)CN(c1cccnc1)C(=O)CO2` (stereo unspecified) | 8.493 |
| 26 | `Cc1cc(C)n(CC(C)NCCN2CCc3ccccc32)n1` (stereo unspecified) | 9.924 |
| 27 | `COc1ccc(-n2cnnc2SCC(=O)NC(C)C)cn1` | 10.08 |
| 28 | `CCOC(=O)c1sc(NC(=O)CN2C(=O)CCC2=O)c(C#N)c1C` | 9.577 |
| 29 | `CCNC(=O)N1CCCC(C(=O)c2cccc(OC(C)C)c2)C1` (stereo unspecified) | 3.133 |
| 30 | `COc1ccc(-c2cc(C(=O)NCCn3ccnc3)n(C)n2)cc1` | 8.228 |
| 31 | `Cc1nnn2c1COCC(CNCc1nccs1)C2` (stereo unspecified) | 2.241 |
| 32 | `CC(c1nc(C2CC2)no1)N1CCc2c(ncn2C)C1` (stereo unspecified) | 5.962 |
| 33 | `O=C1CN(Cc2nnc(-c3ccccc3Br)o2)CCN1` | 7.965 |
| 34 | `Cc1ccccc1N1CCN(CCS(=O)(=O)c2ccc(Br)cc2)CC1` | 1.805 |
| 35 | `CC1CN(CCc2ccccn2)CCN1c1ccc2nncn2n1` (stereo unspecified) | 23.3 |
| 36 | `CCc1cn[nH]c1C1CCN(C(=O)c2cc(C#N)c(=O)[nH]c2C)CC1` | 4.11 |
| 37 | `Cc1cccc(-n2cc(C(=O)N3CCCC(n4ccnc4)C3)nn2)c1` (stereo unspecified) | 0.6944 |
| 38 | `Cc1cc(C(=O)N2CCNC(c3ccccc3)C2)c2ccc(F)cc2n1` (stereo unspecified) | 17.13 |
| 39 | `Cc1cc(CN2CCN(S(C)(=O)=O)CC(C(=O)N(C)C)C2)no1` (stereo unspecified) | 16.95 |
| 40 | `Cc1csc2ncn(C(C)Cc3cccnc3)c(=O)c12` (stereo unspecified) | 8.71 |
| 41 | `Cc1ccc(C(=O)N2CC[C@H]3[C@@H]2CCC(=O)N3c2ccccc2)cn1` | 17.03 |
| 42 | `O=C(N1CCOCC1)N1CCN(c2ccnc3ccsc23)CC1` | 15.72 |
| 43 | `c1cncc(N2CCO[C@H]3CN(CC4CCOC4)C[C@H]32)c1` (stereo partly specified) | 12.99 |
| 44 | `Cc1ccn2ncc(C(=O)N3CCCC(c4cc(C)[nH]n4)C3)c2n1` (stereo unspecified) | 3.846 |
| 45 | `Cc1ccc(CN(CCCn2ccnc2)Cc2c(F)cccc2F)s1` | 2.572 |
| 46 | `Cc1ccc(S(=O)(=O)N2CCCC(c3n[nH]cc3C(=O)N(C)C)C2)cc1` (stereo unspecified) | 2.1 |
| 47 | `O=C(NC1CCC1)C1=NOC2(CCN(Cc3ccccc3)C2)C1` (stereo unspecified) | 1.961 |
| 48 | `NC(=O)CC1CCN(C(=O)c2cccn2Cc2cccs2)CC1` | 10.8 |
| 49 | `COCCN1CCN(Cc2cccnc2)[C@H]2CS(=O)(=O)C[C@H]21` | 2.747 |
| 50 | `Cc1nc(CNC(=O)Nc2cc(C(F)(F)F)c[nH]c2=O)cs1` | 12.75 |
| 51 | `O=C(NCc1cccs1)C1CCN(c2cc(-n3ccnc3)ncn2)CC1` | 7.914 |
| 52 | `CC(C)C(CNC(=O)Nc1cn[nH]c1)N1CCOCC1` (stereo unspecified) | 20.44 |
| 53 | `Cc1[nH]c2c(F)cccc2c1CC(=O)NCc1csc(N(C)C)n1` | 10.03 |
| 54 | `Cc1c(NC(=O)NC2CN3CCC2CC3)cccc1C(=O)N1CCCC1` (stereo unspecified) | -7.507 |
| 55 | `Cc1ccc(C(=O)N2C[C@@H]3CN(c4ncccn4)C[C@@H]3C2)cc1` | -11.28 |
| 56 | `CCn1c(C)nnc1SCCNc1nc(C)nc2c1cnn2C` | 9.045 |
| 57 | `COc1ccnc(N(C)Cc2csc(C)n2)n1` | 6.407 |

The first 3 entries again:

structure	inhibition
COc1ccc(-c2n[nH]cc2CNC2CCN(C3CC3)CC2)cc1	19.89
COC(=O)C(NC(=O)c1ccc(N(C)C)nc1)c1ccccc1 (stereo unspecified)	16.48
Cc1noc(C)c1C(=O)N1CCC2(CCc3ccccc3C(=O)N2)C1 (stereo unspecified)	13.71

Source: ChEMBL document CHEMBL3988442, “University of Dundee, Small-Polar-MMV Screening Library” (2021).